Data from US20100204157A1, “USE OF A PEPTIDE AS A THERAPEUTIC AGENT” (priority 2007, published 2010).
Part of at least one peptide drawing is inferred or uncertain, most often the ends. Where no end group is shown, it is not given here.

What was measured:
[1] = system: RAW 264.7 cells; assay: Phagocytosis assay (Fluorescein-labeled Escherichia coli); type: cell-based, Mouse; conditions: test peptide 10 micrograms per ml, flow cytometry
[2] = system: macrophages prepared from PBMC; assay: TNF alpha production assay (LPS-stimulated macrophages, ELISA); type: cell-based, Human; conditions: test peptide 10 micrograms per ml, lipopolysaccharide 200 ng/ml, overnight
[3] = system: Primary Human endothelial cells (HUVEC); assay: Endothelial cell migration assay; type: cell-based; conditions: test peptide 10 micrograms per ml, 22 hours
[4] = system: HCMV strain AD169; assay: HCMV plaque reduction assay; conditions: MRC-5 cells; peptide 10 micrograms per ml; 7-10 days
[5] = system: spleen cells; assay: Th1/Th2 cytokine profiling assay; type: cell-based, Balb/c mice; conditions: Ovalbumin restimulation; test peptide 10 micrograms per ml; 72 hours
[6] = system: Human Peripheral Blood Mononuclear Cells (PBMC); assay: T cell proliferation assay (PHA, 3H-thymidine); type: cell-based; conditions: test peptide 10 micrograms per ml, 3H-thymidine incorporation
[7] = system: A549 cells; assay: Propidium iodide cell cycle assay; type: cell-based, Human; conditions: 24 hours, test peptide 10 micrograms per ml, FACS
[8] = system: Human Peripheral Blood Mononuclear Cells (PBMC); assay: B cell proliferation assay (SAC plus Interleukin-2, 3H-thymidine); type: cell-based; conditions: test peptide 10 micrograms per ml, 3H-thymidine incorporation
[9] = system: HUVEC; assay: Endothelial tube formation assay; type: cell-based, Human; conditions: test peptide 10 micrograms per ml, 20 hours
[10] = system: A549 cells; assay: Apoptosis prevention assay (C2 ceramide, Annexin-5); type: cell-based, Human; conditions: pretreated 30 min with test peptide 10 micrograms per ml
[11] = system: hepatitis B virus (HBV) ayw strain; assay: HBV replication assay (TaqMan PCR of secreted HBV DNA); type: cell-based; conditions: test peptide 10 micrograms per ml; six days; HBV DNA in supernatant
[12] = system: A549 cells; assay: Apoptosis induction assay (Annexin-5); type: cell-based, Human; conditions: test peptide 10 micrograms per ml, 24 hours
[13] = system: HIV-1IIIB; assay: HIV-1 antiviral assay (CPE reduction, MTS); type: cell-based; conditions: peptide 10 micrograms per ml, 6 days post-infection

FFVAP [Phe-Phe-Val-Ala-Pro]
% of control phagocytosis [1]: 122.9%
% of LPS induction [2]: 93.5%
% inhibition of migration [3]: 19%
% plaque reduction [4]: 0.0%
IFNγ spleen cells; TH1 response (% of control) [5]: 73.2 % of control
IL-2 spleen cells (% of control) [5]: 0.0 % of control
IL-4 spleen cells; TH2 response (% of control) [5]: 0.0 % of control
IL-5 spleen cells; TH2 response (% of control) [5]: 47.8 % of control
TNF-a spleen cells; TH1 response (% of control) [5]: 91.2 % of control
% of PHA induced Control [6]: 97.0%
Cell cycle analysis G0/G1 [7]: 54.8
Cell cycle analysis G2/M [7]: 11.1
Cell cycle analysis S [7]: 31.1
% of SAC/IL2 induced control [8]: 84.1%
% inhibition of tube formation [9]: 26%
% prevention of ceramide induced apoptosis [10]: 0.0%
% inhibition of HBV replication in HEP G2 cells [11]: 4.4%
% of induction [12]: 2.0%
% CPE reduction in HIV-1 infected CEM-SS cells [13]: 0.0%
